Data source: PubChem BioAssay AID1224830 (NIAID, 2016)
Shown is an unselected part of about 18,000 reagents tested. In the full data, about 2,900 (16%) were called active. 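Calls are made per well; low scores hint the gene aids the LPS response, high scores that it dampens it.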 Unmarked entries are inactive. Repeated entries: four replicate wells of each siRNA pool.

- Aim: 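Regulators of TLR4 signalling towards TNF-alpha in macrophage-like cells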 (primary screen)
- Cell system: human THP-1 monocytic leukaemia cells, TNF dual-luciferase reporter clone, PMA-differentiated to macrophage-like cells
- Reagent: siRNA pool against human genes, 50 nM
- Timing: LPS for 4 h, given about 3 days after siRNA transfection
- Challenge: bacterial LPS (TLR4 ligand), 10 ng/ml
- Detection: 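Ratio of firefly to renilla light, scaled to the plate median and expressed as a robust z-score per replicate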
- Direction: TNF reporter robust z-score: higher = stronger TNF reporter response to LPS
- Rule for the call: 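a well is active when its z-score exceeds 2.8 or falls below -1.5; control wells carry no call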

PNO1 scored TNF reporter robust z-score 0.38.
Knock-down of PNO1 came out at: TNF reporter robust z-score 4.03 (active).
Silencing of PNO1 came out at: TNF reporter robust z-score 1.38.
With knock-down of PNO1 the results were TNF reporter robust z-score 3.08 (active).
MEX3A showed TNF reporter robust z-score 0.89.
Depletion of MEX3A came out at: TNF reporter robust z-score -1.6 (active).
After knock-down of MEX3A, the record shows TNF reporter robust z-score -1.52 (active).
MEX3A gave TNF reporter robust z-score -1.85 (active).
Against ARHGAP15 the deposit lists TNF reporter robust z-score -1.83 (active).
With knock-down of ARHGAP15 the results were TNF reporter robust z-score -1.52 (active).
Depletion of ARHGAP15 resulted in: TNF reporter robust z-score -1.38.
With knock-down of ARHGAP15, the record shows TNF reporter robust z-score -1.27.
Silencing of PRRG3 resulted in: TNF reporter robust z-score 0.61.
PRRG3 showed TNF reporter robust z-score 0.51.
Knock-down of PRRG3 came out at: TNF reporter robust z-score -0.91.
With knock-down of PRRG3, the screen gave TNF reporter robust z-score 0.93.
After knock-down of ADGRL3, the screen gave TNF reporter robust z-score -0.17.
Silencing of ADGRL3 came out at: TNF reporter robust z-score 0.64.
Knock-down of ADGRL3 gave: TNF reporter robust z-score 0.02.
ADGRL3 showed TNF reporter robust z-score -0.28.
